Results from US20100021918A1, “METHOD FOR ASSAYING ACTION OF ANTITUMOR AGENT USING SPLICING DEFECTS AS INDEX” (Eisai R&D Management Co., Ltd., priority 2007, published 2010).
The source gives many values for each of these; only a part stands here.

Test system: peripheral blood mononuclear cells (PBMC)
Experiment: Microarray analysis (3), dose-dependent intron expression in PBMC at 3, 10, 30 nM, Table 5
Format: cell-based, human
Experimental: PBMC was suspended in RPMI1640 medium (containing 10% FBS, penicillin, and streptomycin) to 5×10^6 cells/ml and 1 ml of the suspension was plated per well of a 24-well plate. Immediately, 111 μl of 10 times-concentrated (8E,12E,14E)-7-((4-cycloheptylpiperazin-1-yl)carbonyl)oxy-3,6,16,21-tetrahydroxy-6,10,12,16,20-pentamethyl-18,19-epoxytricosa-8,12,14-trien-11-olide was added to the well (six wells per each concentration tested). The cells were then cultured in an incubator with 5% carbon dioxide gas at 37° C. Three hours later, the supernatant was collected and centrifuged at 1500 rpm for five minutes. TRI reagent (SIGMA) (1 ml) was added to each well of the plate from which the supernatant was removed to harvest the cells, which was added to the centrifuged pellet to dissolve. RNA was purified in accordance with the protocol of TRI reagent. RNA was further purified using RNeasy (QIAGEN) and, in accordance with the protocol, DNaseI was added to the samples during the procedure. Absorbance at 260 nm was measured to quantify an amount of RNA.
Ribosomal RNA was removed from 1 μg of each total RNA of control cells (n=3) and cells with the treatment (n=3) using RiboMinus Human/Mouse Transcriptome Isolation Kit (Invitrogen). Single stranded cDNA synthesis, double stranded cDNA synthesis, cRNA synthesis, second single stranded cDNA synthesis, cDNA fragmentation, and cDNA labeling in order were carried out for total RNA from which ribosomal RNA was removed, using GeneChip Whole Transcript Sense Target Labeling and Control Reagents (Affymetrix) to make a cDNA probe. Subsequently, the cDNA probe was used for hybridization with Human Exon 1.0 ST Array (Affymetrix). The array was washed and stained, and luminescence intensity was measured by a scanner.
The expression level of the probe set and the gene was quantified by using Expression Console Ver. 1.0 (Affymetrix) with Summarization Method and Normalization Method being set to “Median polish as used in RMA” and “None”, respectively. The expression level of the probe was normalized with that of the gene.
Probe sets showing that the normalized change in the level expression of the probe set in the group with the treatment at 30 nM was more than 5 times; the expression level of the probe set and the gene in the group with the treatment at 30 nM was more than 100; and probe set annotation was “extended, full, free”, were picked out. Regression analysis was performed with the probe sets extracted for the control group, the group with the treatment at 3 nM, the group with the treatment at 10 nM, and the group with the treatment at 30 nM to determine a p and q value for the slope of regression formula. A gene containing the probe sets with the q value of less than 5% was determined as a candidate gene with increased expression level of the intron regions (Table 5).
In Table 5, for the gene evaluated, gene name (Gene Name), abbreviated name (Gene Symbol), accession number (Accession), alias name (Synonym), transcription cluster number in Human Exon 1.0 ST Array (Human Exon 1.0 ST Array Transcription Cluster ID), chromosome number (Chromosome), type of strand (Strand), start region (Start), stop region (Stop), and change in expression level per 1 nM (Fold Change/nM) were respectively shown.

CCC(O)C(C)C1OC1CC(C)(O)/C=C/C=C(\C)C1OC(=O)CC(O)CCC(C)(O)C(OC(=O)N2CCN(C3CCCCCC3)CC2)/C=C/C1C (stereo not shown) [E7107, (8E,12E,14E)-7-((4-cycloheptylpiperazin-1-yl)carbonyl)oxy-3,6,16,21-tetrahydroxy-6,10,12,16,20-pentamethyl-18,19-epoxytricosa-8,12,14-trien-11-olide]
Fold Change/nM (gene ABLIM1 introns, regression over control, 3, 10, 30 nM): 1.05 nM⁻¹
Fold Change/nM (gene ACTG1 introns, regression over control, 3, 10, 30 nM): 1.05 nM⁻¹
Fold Change/nM (gene ACTR3 introns, regression over control, 3, 10, 30 nM): 1.05 nM⁻¹
Fold Change/nM (gene ANKRD15, intron expression, 3, 10, 30 nM): 1.06 nM⁻¹
Fold Change/nM (gene AP1GBP1, intron expression, 3, 10, 30 nM): 1.06 nM⁻¹
Fold Change/nM (gene APLP2, intron expression, 3, 10, 30 nM): 1.06 nM⁻¹
Fold Change/nM (gene ARRDC2, intron expression, 3, 10, 30 nM): 1.06 nM⁻¹
Fold Change/nM (gene ASH1L introns, regression over control, 3, 10, 30 nM): 1.05 nM⁻¹
Fold Change/nM (gene ATP1B3, intron expression, 3, 10, 30 nM): 1.06 nM⁻¹
Fold Change/nM (gene ATP2A2, intron expression, 3, 10, 30 nM): 1.06 nM⁻¹
Fold Change/nM (gene ATP6V1H introns, regression over control, 3, 10, 30 nM): 1.05 nM⁻¹
Fold Change/nM (gene ATP10D, intron expression, 3, 10, 30 nM): 1.06 nM⁻¹
Fold Change/nM (gene BAZ2A introns, regression over control, 3, 10, 30 nM): 1.05 nM⁻¹
Fold Change/nM (gene BCL2A1 introns, regression over control, 3, 10, 30 nM): 1.05 nM⁻¹
Fold Change/nM (gene BCL10 introns, regression over control, 3, 10, 30 nM): 1.05 nM⁻¹
Fold Change/nM (gene BDP1 introns, regression over control, 3, 10, 30 nM): 1.05 nM⁻¹
Fold Change/nM (gene BIRC2, intron expression, 3, 10, 30 nM): 1.06 nM⁻¹
Fold Change/nM (gene BIRC6, intron expression, 3, 10, 30 nM): 1.05 nM⁻¹
Fold Change/nM (gene BRWD1, intron expression, 3, 10, 30 nM): 1.06 nM⁻¹
Fold Change/nM (gene C1orf63, intron expression, 3, 10, 30 nM): 1.06 nM⁻¹
Fold Change/nM (gene C11orf30, intron expression, 3, 10, 30 nM): 1.05 nM⁻¹
Fold Change/nM (gene CAPN2 introns, regression over control, 3, 10, 30 nM): 1.05 nM⁻¹
Fold Change/nM (gene CCNT2 // ACMSD introns, regression over control, 3, 10, 30 nM): 1.05 nM⁻¹
Fold Change/nM (gene CHD1 introns, regression over control, 3, 10, 30 nM): 1.05 nM⁻¹
Fold Change/nM (gene CKAP4, intron expression, 3, 10, 30 nM): 1.06 nM⁻¹
Fold Change/nM (gene CNBP, intron expression, 3, 10, 30 nM): 1.05 nM⁻¹
Fold Change/nM (gene CNNM3 introns, regression over control, 3, 10, 30 nM): 1.05 nM⁻¹
Fold Change/nM (gene CNOT2, intron expression, 3, 10, 30 nM): 1.06 nM⁻¹
Fold Change/nM (gene COL4A3BP introns, regression over control, 3, 10, 30 nM): 1.05 nM⁻¹
Fold Change/nM (gene COQ2 introns, regression over control, 3, 10, 30 nM): 1.05 nM⁻¹
Fold Change/nM (gene CPEB4, intron expression, 3, 10, 30 nM): 1.06 nM⁻¹
Fold Change/nM (gene CSF1R introns, regression over control, 3, 10, 30 nM): 1.05 nM⁻¹
Fold Change/nM (gene CSNK1A1, intron expression, 3, 10, 30 nM): 1.06 nM⁻¹
Fold Change/nM (gene CTNNB1, intron expression, 3, 10, 30 nM): 1.06 nM⁻¹
Fold Change/nM (gene CUL4A introns, regression over control, 3, 10, 30 nM): 1.05 nM⁻¹
Fold Change/nM (gene CYP1B1, intron expression, 3, 10, 30 nM): 1.06 nM⁻¹
Fold Change/nM (gene DDX5 introns, regression over control, 3, 10, 30 nM): 1.05 nM⁻¹
Fold Change/nM (gene DERL1 introns, regression over control, 3, 10, 30 nM): 1.05 nM⁻¹
Fold Change/nM (gene DHX15, intron expression, 3, 10, 30 nM): 1.06 nM⁻¹
Fold Change/nM (gene DIAPH1 introns, regression over control, 3, 10, 30 nM): 1.05 nM⁻¹
Fold Change/nM (gene EHD1 introns, regression over control, 3, 10, 30 nM): 1.05 nM⁻¹
Fold Change/nM (gene EIF4G1 introns, regression over control, 3, 10, 30 nM): 1.05 nM⁻¹
Fold Change/nM (gene ELOVL5 introns, regression over control, 3, 10, 30 nM): 1.05 nM⁻¹
Fold Change/nM (gene EML4, intron expression, 3, 10, 30 nM): 1.06 nM⁻¹
Fold Change/nM (gene FAM78A introns, regression over control, 3, 10, 30 nM): 1.05 nM⁻¹
Fold Change/nM (gene FLJ36874 introns, regression over control, 3, 10, 30 nM): 1.05 nM⁻¹
Fold Change/nM (gene FMNL1 introns, regression over control, 3, 10, 30 nM): 1.05 nM⁻¹
Fold Change/nM (gene FMNL3 introns, regression over control, 3, 10, 30 nM): 1.05 nM⁻¹
Fold Change/nM (gene FTHL7 // FTH1 // FTHL3 // FTHP1 // FTHL12 // FTHL11 // FTHL8 introns, regression over control, 3, 10, 30 nM): 1.05 nM⁻¹
Fold Change/nM (gene GBF1 introns, regression over control, 3, 10, 30 nM): 1.05 nM⁻¹
Fold Change/nM (gene GGA2 introns, regression over control, 3, 10, 30 nM): 1.05 nM⁻¹
Fold Change/nM (gene GNAS, intron expression, 3, 10, 30 nM): 1.06 nM⁻¹
Fold Change/nM (gene GSPT1 introns, regression over control, 3, 10, 30 nM): 1.05 nM⁻¹
Fold Change/nM (gene HELZ introns, regression over control, 3, 10, 30 nM): 1.05 nM⁻¹
Fold Change/nM (gene HS3ST3B1, intron expression, 3, 10, 30 nM): 1.06 nM⁻¹
